We go through one molecule from publication PMC7545191.

For the test, the target named is His-tagged TagA (Vibrio cholerae). Description: pull-down.

No constants are given. Whether binding was seen depends on the method and setting. In cells and extracts the contact can be indirect. Binding calls can cover weak binding; strength is not graded here.

B1: Hcp (protein, UniProt P72350 1-172)
chain: MPTPCYISIEGQTQGLITAGACTADSIGDSFVEGHEDEMLVQQFDHVVTVPTDPQSGQPSGQRVHKPFKFTVALNKAVPLLYNALSSGEKLKTVELKWYRTSIEGKQENFFTTKLENASIVDIHCEMPHCQDPAKSDFTQNVTVSLSYRKITWDHVNAGTSGSDDWRKPIEA
For B1, the binding entry is on record as “binds”.
